{"source": "patent US20120178158A1", "about": "“ADULT ANIMALS GENERATED FROM INDUCED PLURIPOTENT CELLS” (The Scripps Research Institute, priority 2009, published 2012)", "system": "proviral encoded transgenes (Oct4, Sox2, cMyc, Klf4) in iPSC lines", "assay": "RT-qPCR of proviral encoded transgenes in iPSC lines", "type": "cell-based, mouse", "conditions": "10 μg/ml dox for 24 hs", "note": "At least one structure is not confirmed: it was looked up by name or label, or the drawing left a doubt."}
{"compound": "C[C@H]1c2cccc(O)c2C(=O)C2=C(O)[C@]3(O)C(=O)C(C(N)=O)=C(O)[C@@H](N(C)C)[C@@H]3[C@@H](O)[C@@H]21", "note": "[dox, doxycycline]", "values": [{"measurement": "proviral transgene expression level after re-induction vs absence of dox", "value": "one order of magnitude higher"}]}
